Data taken from the supplement of paper PMC11006884.
The list shows a part of the results, in another mix than the full data.

Sequences of proteins named here, by UniProt entry; tags and fusion partners are left off. A change or cut given only in a name is not applied to a line headed by its entry.
UniProt Q9NU22: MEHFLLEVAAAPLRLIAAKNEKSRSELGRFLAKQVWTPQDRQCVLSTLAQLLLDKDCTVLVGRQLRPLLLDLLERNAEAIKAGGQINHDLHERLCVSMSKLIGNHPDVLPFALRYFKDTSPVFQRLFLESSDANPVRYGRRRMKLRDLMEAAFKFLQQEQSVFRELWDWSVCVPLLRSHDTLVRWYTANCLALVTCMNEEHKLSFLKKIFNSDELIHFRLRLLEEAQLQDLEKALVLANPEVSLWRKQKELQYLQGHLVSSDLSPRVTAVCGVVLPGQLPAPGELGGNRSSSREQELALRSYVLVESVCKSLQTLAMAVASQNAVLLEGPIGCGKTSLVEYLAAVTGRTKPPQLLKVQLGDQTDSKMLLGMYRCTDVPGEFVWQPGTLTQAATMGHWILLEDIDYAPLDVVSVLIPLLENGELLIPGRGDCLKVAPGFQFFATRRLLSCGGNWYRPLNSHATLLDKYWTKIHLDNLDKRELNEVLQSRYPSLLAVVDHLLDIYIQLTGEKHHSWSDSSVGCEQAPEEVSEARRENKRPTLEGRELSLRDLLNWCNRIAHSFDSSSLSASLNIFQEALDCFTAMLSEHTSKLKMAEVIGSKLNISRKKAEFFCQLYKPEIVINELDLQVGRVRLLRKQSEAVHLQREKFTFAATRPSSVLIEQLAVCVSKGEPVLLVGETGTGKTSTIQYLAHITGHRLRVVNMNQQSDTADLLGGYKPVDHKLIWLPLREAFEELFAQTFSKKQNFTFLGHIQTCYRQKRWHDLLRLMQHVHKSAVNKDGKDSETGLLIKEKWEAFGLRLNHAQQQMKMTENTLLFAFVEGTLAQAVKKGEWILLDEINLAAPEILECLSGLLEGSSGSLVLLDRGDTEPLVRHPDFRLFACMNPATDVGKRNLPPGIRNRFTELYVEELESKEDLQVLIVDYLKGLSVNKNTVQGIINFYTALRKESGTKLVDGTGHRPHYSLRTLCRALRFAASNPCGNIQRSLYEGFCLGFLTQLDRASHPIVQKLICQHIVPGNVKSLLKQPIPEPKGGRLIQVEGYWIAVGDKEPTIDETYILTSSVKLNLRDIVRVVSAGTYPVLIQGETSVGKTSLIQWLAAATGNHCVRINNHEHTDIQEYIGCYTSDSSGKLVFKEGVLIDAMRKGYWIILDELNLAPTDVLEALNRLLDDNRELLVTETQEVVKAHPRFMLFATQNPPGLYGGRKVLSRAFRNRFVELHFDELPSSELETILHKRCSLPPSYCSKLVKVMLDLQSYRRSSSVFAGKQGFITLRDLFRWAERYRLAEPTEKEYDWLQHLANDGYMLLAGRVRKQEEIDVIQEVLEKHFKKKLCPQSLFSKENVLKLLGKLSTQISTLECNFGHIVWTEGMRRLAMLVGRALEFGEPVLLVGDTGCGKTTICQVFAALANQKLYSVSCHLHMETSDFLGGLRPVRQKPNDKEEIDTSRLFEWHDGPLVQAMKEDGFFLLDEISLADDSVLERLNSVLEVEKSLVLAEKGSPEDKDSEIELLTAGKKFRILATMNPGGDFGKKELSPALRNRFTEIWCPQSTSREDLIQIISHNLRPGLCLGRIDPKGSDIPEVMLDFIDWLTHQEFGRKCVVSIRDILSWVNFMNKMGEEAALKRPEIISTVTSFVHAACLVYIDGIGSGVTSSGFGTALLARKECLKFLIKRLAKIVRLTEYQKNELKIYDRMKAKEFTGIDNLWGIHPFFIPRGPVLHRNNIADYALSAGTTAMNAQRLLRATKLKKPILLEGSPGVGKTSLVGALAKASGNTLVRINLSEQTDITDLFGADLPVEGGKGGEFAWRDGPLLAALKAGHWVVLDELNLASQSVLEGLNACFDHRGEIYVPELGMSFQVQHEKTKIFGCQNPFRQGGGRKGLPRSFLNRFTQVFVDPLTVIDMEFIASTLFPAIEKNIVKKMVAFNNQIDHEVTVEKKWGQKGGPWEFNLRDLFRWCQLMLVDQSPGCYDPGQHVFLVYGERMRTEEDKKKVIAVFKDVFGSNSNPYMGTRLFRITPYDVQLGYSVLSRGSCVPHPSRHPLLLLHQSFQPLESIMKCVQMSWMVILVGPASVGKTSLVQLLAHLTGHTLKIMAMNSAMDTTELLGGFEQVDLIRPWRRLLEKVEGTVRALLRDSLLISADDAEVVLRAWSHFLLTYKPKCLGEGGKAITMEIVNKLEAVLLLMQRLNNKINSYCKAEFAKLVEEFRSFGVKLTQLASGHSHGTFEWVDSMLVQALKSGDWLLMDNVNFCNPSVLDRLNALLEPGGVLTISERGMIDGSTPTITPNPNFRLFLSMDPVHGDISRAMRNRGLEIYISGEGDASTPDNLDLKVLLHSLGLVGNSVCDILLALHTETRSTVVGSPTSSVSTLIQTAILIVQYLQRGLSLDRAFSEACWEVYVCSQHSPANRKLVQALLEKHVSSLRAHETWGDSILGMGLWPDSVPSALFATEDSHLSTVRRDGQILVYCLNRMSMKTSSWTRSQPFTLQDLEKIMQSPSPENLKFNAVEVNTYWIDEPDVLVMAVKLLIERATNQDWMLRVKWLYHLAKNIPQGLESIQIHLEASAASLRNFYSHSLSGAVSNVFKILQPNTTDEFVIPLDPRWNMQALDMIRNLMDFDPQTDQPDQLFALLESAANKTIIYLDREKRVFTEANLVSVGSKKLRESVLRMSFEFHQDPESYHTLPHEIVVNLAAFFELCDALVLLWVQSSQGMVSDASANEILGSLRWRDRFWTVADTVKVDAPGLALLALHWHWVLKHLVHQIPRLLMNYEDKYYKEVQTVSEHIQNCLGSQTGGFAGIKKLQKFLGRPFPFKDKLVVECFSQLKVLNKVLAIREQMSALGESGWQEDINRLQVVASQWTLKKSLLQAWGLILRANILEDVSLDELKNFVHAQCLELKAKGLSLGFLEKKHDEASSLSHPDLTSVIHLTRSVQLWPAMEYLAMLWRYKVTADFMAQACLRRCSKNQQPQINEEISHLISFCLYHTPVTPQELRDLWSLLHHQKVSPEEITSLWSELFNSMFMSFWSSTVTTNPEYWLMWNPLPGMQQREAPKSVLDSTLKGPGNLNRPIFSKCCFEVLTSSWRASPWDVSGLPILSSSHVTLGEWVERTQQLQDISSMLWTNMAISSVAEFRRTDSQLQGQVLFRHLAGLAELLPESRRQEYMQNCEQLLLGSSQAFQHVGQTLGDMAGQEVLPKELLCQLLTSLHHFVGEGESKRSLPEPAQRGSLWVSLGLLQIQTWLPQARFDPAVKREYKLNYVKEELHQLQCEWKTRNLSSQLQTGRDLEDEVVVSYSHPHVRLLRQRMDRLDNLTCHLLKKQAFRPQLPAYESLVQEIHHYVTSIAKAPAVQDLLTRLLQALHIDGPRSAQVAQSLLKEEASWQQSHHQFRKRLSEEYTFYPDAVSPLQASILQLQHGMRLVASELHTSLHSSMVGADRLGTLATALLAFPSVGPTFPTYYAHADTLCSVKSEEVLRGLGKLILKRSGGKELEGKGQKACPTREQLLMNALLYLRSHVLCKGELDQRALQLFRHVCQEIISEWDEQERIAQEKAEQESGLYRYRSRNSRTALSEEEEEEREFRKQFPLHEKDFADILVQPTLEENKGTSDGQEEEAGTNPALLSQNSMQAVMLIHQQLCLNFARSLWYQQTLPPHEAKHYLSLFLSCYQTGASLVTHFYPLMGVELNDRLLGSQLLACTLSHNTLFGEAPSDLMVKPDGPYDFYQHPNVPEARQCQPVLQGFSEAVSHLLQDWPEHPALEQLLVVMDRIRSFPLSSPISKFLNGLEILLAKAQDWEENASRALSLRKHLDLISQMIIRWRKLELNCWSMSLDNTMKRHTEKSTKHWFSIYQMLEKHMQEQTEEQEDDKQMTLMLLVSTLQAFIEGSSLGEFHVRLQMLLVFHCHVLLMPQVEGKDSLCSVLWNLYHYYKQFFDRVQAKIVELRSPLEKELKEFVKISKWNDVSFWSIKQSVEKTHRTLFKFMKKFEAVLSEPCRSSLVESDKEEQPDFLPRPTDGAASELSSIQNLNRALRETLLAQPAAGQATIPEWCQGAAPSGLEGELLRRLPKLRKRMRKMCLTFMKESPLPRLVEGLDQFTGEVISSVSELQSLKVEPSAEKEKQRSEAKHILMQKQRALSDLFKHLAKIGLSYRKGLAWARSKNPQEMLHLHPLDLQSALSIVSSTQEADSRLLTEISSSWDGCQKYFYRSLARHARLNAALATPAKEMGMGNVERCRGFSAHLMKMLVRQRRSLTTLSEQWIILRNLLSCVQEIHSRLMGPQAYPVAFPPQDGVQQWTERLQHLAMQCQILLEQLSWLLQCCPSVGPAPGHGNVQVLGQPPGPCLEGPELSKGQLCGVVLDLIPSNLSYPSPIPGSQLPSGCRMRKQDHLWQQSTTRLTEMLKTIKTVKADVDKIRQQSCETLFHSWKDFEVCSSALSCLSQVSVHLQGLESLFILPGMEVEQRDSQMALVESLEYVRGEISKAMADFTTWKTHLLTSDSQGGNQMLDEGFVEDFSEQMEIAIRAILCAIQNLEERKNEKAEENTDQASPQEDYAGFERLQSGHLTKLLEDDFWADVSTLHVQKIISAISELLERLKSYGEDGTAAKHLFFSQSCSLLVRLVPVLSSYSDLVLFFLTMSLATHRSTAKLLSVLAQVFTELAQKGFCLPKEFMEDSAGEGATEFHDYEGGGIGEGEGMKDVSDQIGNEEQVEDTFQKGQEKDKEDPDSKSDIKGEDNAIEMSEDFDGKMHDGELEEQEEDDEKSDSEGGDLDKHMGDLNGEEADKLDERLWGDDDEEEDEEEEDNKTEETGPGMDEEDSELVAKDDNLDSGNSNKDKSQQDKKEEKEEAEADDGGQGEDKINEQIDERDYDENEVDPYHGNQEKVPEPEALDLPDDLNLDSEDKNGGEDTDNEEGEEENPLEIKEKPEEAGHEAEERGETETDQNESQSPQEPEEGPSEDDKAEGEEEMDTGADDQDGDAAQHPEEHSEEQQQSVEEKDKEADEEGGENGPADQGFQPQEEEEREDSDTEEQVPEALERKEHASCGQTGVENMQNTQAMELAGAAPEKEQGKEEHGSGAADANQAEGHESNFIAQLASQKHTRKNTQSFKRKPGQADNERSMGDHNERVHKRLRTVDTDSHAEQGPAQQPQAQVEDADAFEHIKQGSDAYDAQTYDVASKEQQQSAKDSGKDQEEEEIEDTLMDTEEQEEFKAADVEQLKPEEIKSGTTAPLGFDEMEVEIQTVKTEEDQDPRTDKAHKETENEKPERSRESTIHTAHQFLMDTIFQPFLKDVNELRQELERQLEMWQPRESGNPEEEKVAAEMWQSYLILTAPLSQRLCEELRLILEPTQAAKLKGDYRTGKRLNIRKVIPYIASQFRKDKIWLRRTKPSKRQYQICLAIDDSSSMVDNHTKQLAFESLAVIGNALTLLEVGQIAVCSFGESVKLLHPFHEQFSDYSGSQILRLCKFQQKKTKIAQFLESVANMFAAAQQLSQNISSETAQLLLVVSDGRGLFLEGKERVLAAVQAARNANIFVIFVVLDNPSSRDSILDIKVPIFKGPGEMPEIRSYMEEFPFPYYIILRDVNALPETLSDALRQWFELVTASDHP
UniProt Q9H7E9: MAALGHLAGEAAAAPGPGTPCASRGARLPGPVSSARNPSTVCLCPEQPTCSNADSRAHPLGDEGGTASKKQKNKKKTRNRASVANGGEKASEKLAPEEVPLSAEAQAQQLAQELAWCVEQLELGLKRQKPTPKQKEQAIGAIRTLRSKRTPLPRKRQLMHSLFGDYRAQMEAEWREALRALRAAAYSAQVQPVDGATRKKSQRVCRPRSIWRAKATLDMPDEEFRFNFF
UniProt Q9NS86: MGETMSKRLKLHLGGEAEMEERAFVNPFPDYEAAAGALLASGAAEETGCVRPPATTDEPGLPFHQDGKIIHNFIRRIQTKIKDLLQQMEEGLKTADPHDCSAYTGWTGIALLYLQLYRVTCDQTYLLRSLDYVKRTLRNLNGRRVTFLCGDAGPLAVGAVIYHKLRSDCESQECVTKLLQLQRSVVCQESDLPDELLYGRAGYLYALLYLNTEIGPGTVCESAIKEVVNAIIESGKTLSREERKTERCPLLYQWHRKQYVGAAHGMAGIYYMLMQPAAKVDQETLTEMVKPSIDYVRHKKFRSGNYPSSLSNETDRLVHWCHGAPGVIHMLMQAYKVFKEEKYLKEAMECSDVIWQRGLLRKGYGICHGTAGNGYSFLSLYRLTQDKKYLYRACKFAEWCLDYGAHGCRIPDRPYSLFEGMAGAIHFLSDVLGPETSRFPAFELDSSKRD
UniProt Q9HC98: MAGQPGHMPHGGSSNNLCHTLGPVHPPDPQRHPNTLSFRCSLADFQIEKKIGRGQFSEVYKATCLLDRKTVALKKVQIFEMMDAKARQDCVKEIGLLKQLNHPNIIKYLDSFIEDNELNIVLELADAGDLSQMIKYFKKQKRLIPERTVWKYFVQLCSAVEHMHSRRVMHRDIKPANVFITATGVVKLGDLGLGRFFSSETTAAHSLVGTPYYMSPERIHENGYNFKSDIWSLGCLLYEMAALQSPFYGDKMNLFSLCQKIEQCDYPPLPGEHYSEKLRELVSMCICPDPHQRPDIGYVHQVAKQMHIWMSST

Each target was assayed with COC(=O)C#Cc1ccccc1 [methyl 3-phenylpropiolate] (assay: log2 ratio of iodoacetamide-alkyne labeling of the cysteine site, DMSO over compound (competition); higher = stronger covalent engagement of the cysteine by the compound, active = 1 or more). Settings: 500 µM; treatment time 1 h; system: HEK293T cell lysate.
Method in brief: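 Three replicates, each with duplicate channels, were prepared from HEK293T lysate (2 mg/mL) treated with vehicle or electrophile at 500 µM for 1 h at ambient temperature. Iodoacetamide alkyne was then applied for 1 h, and samples were clicked to sCIP-TMT reagents, pooled, trypsin-digested overnight at 37 °C, enriched on streptavidin, acid-eluted and analysed on Orbitrap Eclipse LC-MS/MS with FAIMS, with FragPipe quantification. The log2 competition ratio per cysteine is the mean control-channel divided by the mean compound-channel reporter intensity. Cysteines quantified in only one replicate were left out.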

Row | Target | log2 ratio of iodoacetamide-alkyne labeling
1 | XPNPEP1 C308 (UniProt Q9NQW7) | inactive: 0.061
2 | EIF2B3 C64 (UniProt Q9NR50) | inactive: 0.548
3 | OPA3 C164 (UniProt Q9H6K4) | inactive: 0.331
4 | MYO10 C1517 (UniProt Q9HD67) | inactive: 0.288
5 | EXOSC5 C26 (UniProt Q9NQT4) | inactive: 0.995
6 | IARS2 C414 (UniProt Q9NSE4) | inactive: 0.144
7 | BIRC6 C3404 (UniProt Q9NR09) | inactive: 0.493
8 | MDN1 C3528 (UniProt Q9NU22) | inactive: 0.153
9 | MDN1 C271 (UniProt Q9NU22) | inactive: 0.728
10 | UNC45A C34 (UniProt Q9H3U1) | inactive: 0.0992
11 | PHAX C87 (UniProt Q9H814) | inactive: 0.778
12 | UniProt Q9HAU4_C293 | inactive: 0.257
13 | EHD1 C138 (UniProt Q9H4M9) | inactive: 0.114
14 | UCK1 C9 (UniProt Q9HA47) | inactive: 0.165
15 | ATP13A1 C574 (UniProt Q9HD20) | inactive: 0.238
16 | DSN1 C287 (UniProt Q9H410) | inactive: 0.233
17 | MCCC2 C167 (UniProt Q9HCC0) | inactive: 0.195
18 | CARS2 C526 (UniProt Q9HA77) | inactive: 0.206
19 | UNC45A C384 (UniProt Q9H3U1) | inactive: 0.0438

Reprinted at random: 2 entries already listed, in no set order.
Row | Target | log2 ratio of iodoacetamide-alkyne labeling
17 | MCCC2 C167 (UniProt Q9HCC0) | inactive: 0.195
9 | MDN1 C271 (UniProt Q9NU22) | inactive: 0.728

(listing goes on)

Row | Target | log2 ratio of iodoacetamide-alkyne labeling
20 | CNOT10 C633 (UniProt Q9H9A5) | inactive: 0.175
21 | BCAS3 C16 (UniProt Q9H6U6) | inactive: 0.55
22 | SENP3 C243 (UniProt Q9H4L4) | inactive: 0.523
23 | GPHN C419 (UniProt Q9NQX3) | inactive: 0.38
24 | CHD8 C1947 (UniProt Q9HCK8) | inactive: 0.761
25 | ATG3 C50 (UniProt Q9NT62) | inactive: -0.109
26 | UniProt Q9HBK9_C32 | active: 1.1
27 | C8orf33 C21 (UniProt Q9H7E9) | inactive: 0.57
28 | LANCL2 C187 (UniProt Q9NS86) | inactive: -0.0212
29 | CXorf56 C11 (UniProt Q9H5V9) | inactive: 0.411
30 | NEK6 C40 (UniProt Q9HC98) | inactive: 0.426
31 | SMYD3 C421 (UniProt Q9H7B4) | inactive: 0.00903
32 | MDN1 C1839 (UniProt Q9NU22) | inactive: 0.281
33 | STARD7 C362 (UniProt Q9NQZ5) | inactive: 0.426
34 | RDH14 C97 (UniProt Q9HBH5) | inactive: 0.228
35 | UniProt Q9H3N1_C106 | inactive: -0.513
36 | WDR54 C18 (UniProt Q9H977) | inactive: 0.253
37 | IARS2 C155 (UniProt Q9NSE4) | inactive: 0.532
